{"source": "PubChem BioAssay AID686937 (Drosophila RNAi Screening Center, 2013)", "screen": "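Knock-downs that reduce output of a secreted reporter enzyme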 (primary screen)", "cells": "Drosophila S2 cells expressing secreted horseradish peroxidase", "reagents": "long dsRNA against Drosophila genes", "timing": "about 5.5 days (5 days dsRNA, then 12 h reporter induction)", "conditions": "reporter expression induced after 5 days of dsRNA, read 12 h later; inducer not stated", "measurement": "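Chemiluminescent measurement of peroxidase in the medium 12 h after reporter induction, following 5 days of dsRNA, given as a z-score per plate; higher means more secretion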", "reading the numbers": "z-score: higher = more reporter secreted into medium", "note": "In all, the deposit lists about 23,000 reagents; shown is an unselected part of those that have a named target and a result. 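Reduced-secretion tags in replicate 1 do not always agree with the z-scores; no criterion for assigning the tags was given.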 Names joined by + are all predicted targets of the reagent. Not all columns of the deposit are shown. Not given: the amount of reagent."}
{"gene": "adp (adipose)", "amplicon": "DRSC06916", "z-score, replicate 1": 0.33}
{"gene": "TBC1d7 (TBC1 domain family member 7)", "amplicon": "DRSC15985", "z-score, replicate 1": 0.31}
{"gene": "CG18542 + CG32939", "amplicon": "DRSC15342", "z-score, replicate 1": 0.33}
{"gene": "ry (rosy)", "amplicon": "DRSC17048", "z-score, replicate 1": 0.44}
{"gene": "l(1)G0320 (lethal (1) G0320)", "amplicon": "DRSC18255", "z-score, replicate 1": 0.21}
{"gene": "CG3662", "amplicon": "DRSC00626", "z-score, replicate 1": 0.59}
{"gene": "CG1441", "amplicon": "DRSC06448", "z-score, replicate 1": 0.35}
{"gene": "Cap-H2 (Chromosome associated protein H2)", "amplicon": "DRSC14908", "z-score, replicate 1": 0.37}
{"gene": "Septin1 (Septin 1)", "amplicon": "DRSC20573", "z-score, replicate 1": 0.36}
{"gene": "CG13693", "amplicon": "DRSC00362", "z-score, replicate 1": 0.27}
{"gene": "nsl1 (non-specific lethal 1)", "amplicon": "DRSC15625", "z-score, replicate 1": -2.88}
{"gene": "nerfin-2 (nervous fingers 2)", "amplicon": "DRSC14547", "z-score, replicate 1": 0.36}
{"gene": "ddbt (deadbeat)", "amplicon": "DRSC07869", "z-score, replicate 1": 0.66}
{"gene": "CG13946", "amplicon": "DRSC00364", "z-score, replicate 1": 0.19}
{"gene": "Arp53D (Actin-related protein 53D)", "amplicon": "DRSC05923", "z-score, replicate 1": 0.45}
{"gene": "rnh1 (ribonuclease H1)", "amplicon": "DRSC07673", "z-score, replicate 1": 0.01}
{"gene": "CG16772", "amplicon": "DRSC02516", "z-score, replicate 1": 0.43}
{"gene": "CG15597", "amplicon": "DRSC12283", "z-score, replicate 1": 0.38}
{"gene": "GstD3 (Glutathione S transferase D3)", "amplicon": "DRSC15571", "z-score, replicate 1": 0.4}
{"gene": "Prps (Phosphoribosyl pyrophosphate synthetase)", "amplicon": "DRSC08994", "z-score, replicate 1": -1.54}
{"gene": "Prps (Phosphoribosyl pyrophosphate synthetase)", "amplicon": "DRSC10707", "z-score, replicate 1": -1.83}
{"gene": "Prps (Phosphoribosyl pyrophosphate synthetase)", "amplicon": "DRSC10708", "z-score, replicate 1": -0.84}
{"gene": "CG6923", "amplicon": "DRSC16136", "z-score, replicate 1": -0.36}
{"gene": "dgrn (degringolade)", "amplicon": "DRSC12154", "z-score, replicate 1": 0.28}
{"gene": "CR43142 (pseudo)", "amplicon": "DRSC00962", "z-score, replicate 1": 0.36}
{"gene": "CG32115", "amplicon": "DRSC22607", "z-score, replicate 1": 1.7}
{"gene": "CG14420", "amplicon": "DRSC17917", "z-score, replicate 1": 0.5}
{"gene": "Picot", "amplicon": "DRSC07508", "z-score, replicate 1": 0.1}
{"gene": "ntc (nutcracker)", "amplicon": "DRSC08166", "z-score, replicate 1": 0.34}
{"gene": "Aldh (Aldehyde dehydrogenase)", "amplicon": "DRSC02717", "z-score, replicate 1": -0.41}
{"gene": "CG10516", "amplicon": "DRSC09738", "z-score, replicate 1": 0.5}
{"gene": "CG31176", "amplicon": "DRSC15038", "z-score, replicate 1": 0.06}
{"gene": "CG31176", "amplicon": "DRSC16021", "z-score, replicate 1": 0.3}
{"gene": "RpS17 (Ribosomal protein S17)", "amplicon": "DRSC11271", "z-score, replicate 1": -4.03}
{"gene": "CG9701", "amplicon": "DRSC11093", "z-score, replicate 1": 0.6}
{"gene": "bchs (blue cheese)", "amplicon": "DRSC03126", "z-score, replicate 1": 0.05}
{"gene": "CG34223", "amplicon": "DRSC05268", "z-score, replicate 1": 0.24}
{"gene": "SiaT (Sialyltransferase)", "amplicon": "DRSC04494", "z-score, replicate 1": 0.2}
{"gene": "Rbcn-3B (Rabconnectin-3B)", "amplicon": "DRSC18574", "z-score, replicate 1": 0.3}
{"gene": "oc (ocelliless)", "amplicon": "DRSC18808", "z-score, replicate 1": 0.42}
{"gene": "cDIP (Common Dpr-interacting protein)", "amplicon": "DRSC14267", "z-score, replicate 1": 0.44}
{"gene": "CG15635", "amplicon": "DRSC00470", "z-score, replicate 1": 0.47}
{"gene": "CG15635", "amplicon": "DRSC22873", "z-score, replicate 1": 2.78}
{"gene": "CLS (Cardiolipin synthase)", "amplicon": "DRSC15642", "z-score, replicate 1": -0.05}
{"gene": "CG15403", "amplicon": "DRSC00417", "z-score, replicate 1": 0.49}
{"gene": "CG15252", "amplicon": "DRSC17981", "z-score, replicate 1": 0.4}
{"gene": "Pex3 (Peroxin 3)", "amplicon": "DRSC10731", "z-score, replicate 1": 0.47}
{"gene": "esn (espinas)", "amplicon": "DRSC05039", "z-score, replicate 1": -1.76}
{"gene": "esn (espinas)", "amplicon": "DRSC06181", "z-score, replicate 1": 0.63}
{"gene": "esn (espinas)", "amplicon": "DRSC07612", "z-score, replicate 1": 0.42}
{"gene": "MFS9 (Major Facilitator Superfamily Transporter 9)", "amplicon": "DRSC15560", "z-score, replicate 1": 0.27}

Records above whose target name begins with N or n:
{"gene": "nsl1 (non-specific lethal 1)", "amplicon": "DRSC15625", "z-score, replicate 1": -2.88}
{"gene": "nerfin-2 (nervous fingers 2)", "amplicon": "DRSC14547", "z-score, replicate 1": 0.36}
{"gene": "ntc (nutcracker)", "amplicon": "DRSC08166", "z-score, replicate 1": 0.34}
